Data as given in PubChem BioAssay AID504744 (Drosophila RNAi Screening Center, 2011)
Assay: 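Find genes whose loss alters insulin-driven dAkt phosphorylation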 (primary screen). Cells: Drosophila Kc167 cells. Reagents: long dsRNA against Drosophila genes, 250 ng dsRNA per well of a 384-well plate. Time to read-out: 3 days of knock-down, then overnight serum-free starvation before stimulation. Challenge: bovine insulin at 387 nM for 10 minutes after 12 h without serum. Measured: 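In-cell antibody fluorescence for phospho-dAkt in each well over DNA-dye signal, with log2 residuals expressed as z-scores adjusted for cell count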. Rule for the call: 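Under insulin, a gene counts as a hit if the average z-score of two replicates lies above 2.5 or below -2.5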.
The deposit covers about 23,000 reagents; this is an unselected part of those with a known target gene and a result. Over the whole deposit, 98 (0.43%) are marked active. 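Only hit calls are given; the phospho-dAkt signals, z-scores and hit direction were not deposited.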 A plus sign joins genes that one reagent is predicted to hit.

no.	Target gene	amplicon	Outcome
1	Dtwd2 + Obp84a	DRSC12603	inactive
2	Nepl14 (GeneID 42700)	DRSC15631	inactive
3	Mmp2 (GeneID 35997)	DRSC06698	inactive
4	Mmp2 (GeneID 35997)	DRSC22024	inactive
5	sfl (GeneID 38736)	DRSC08828	inactive
6	sfl (GeneID 38736)	DRSC08830	inactive
7	Megf8 (GeneID 34099)	DRSC03058	inactive
8	CG14856 (GeneID 41790)	DRSC14980	inactive
9	dpr11 (GeneID 40800)	DRSC12561	inactive
10	dpr11 (GeneID 40800)	DRSC12562	inactive
11	dpr11 (GeneID 40800)	DRSC12563	inactive
12	Ir100a (GeneID 43753)	DRSC14329	inactive
13	BobA (GeneID 50281)	DRSC09889	inactive
14	Cul2 (GeneID 35420)	DRSC03710	inactive
15	pps (GeneID 41524)	DRSC16057	inactive
16	Gr5a (GeneID 44873)	DRSC18085	inactive
17	CG9643 (GeneID 33504)	DRSC00722	inactive
18	CG31102 (GeneID 326118)	DRSC14260	inactive
19	Tsp33B (GeneID 34590)	DRSC02418	inactive
20	Vha100-1 (GeneID 43442)	DRSC14148	inactive
21	RpS15Ab + RpS15Aa	DRSC06129	inactive
22	RpS15Ab + RpS15Aa	DRSC19831	inactive
23	CG42541 (GeneID 31344)	DRSC17973	inactive
24	CG42541 (GeneID 31344)	DRSC18119	inactive
25	CG42541 (GeneID 31344)	DRSC18120	inactive
26	Vps53 (GeneID 33640)	DRSC00595	inactive
27	CG9801 (GeneID 41044)	DRSC16568	inactive
28	CG42327 (GeneID 41401)	DRSC14936	inactive
29	CG42327 (GeneID 41401)	DRSC14937	inactive
30	Gr57a (GeneID 37347)	DRSC06401	inactive
31	Vps11 (GeneID 317987)	DRSC11909	inactive
32	Vps11 (GeneID 317987)	DRSC21579	inactive
33	CG10943 (GeneID 39462)	DRSC09805	inactive
34	CG11141 (GeneID 35672)	DRSC06048	inactive
35	Alp7 (GeneID 37538)	DRSC04355	inactive
36	ATPCL (GeneID 36760)	DRSC05913	inactive
37	RhoBTB (GeneID 40249)	DRSC11877	inactive
38	Rcd6 (GeneID 37332)	DRSC06054	inactive
39	CG13160 (GeneID 36343)	DRSC06284	inactive
40	L (retired record) (GeneID 44831)	DRSC05966	inactive
41	L (retired record) (GeneID 44831)	DRSC05967	inactive
42	CG14507 (GeneID 43461)	DRSC14859	inactive
43	CG32599 (GeneID 318108)	DRSC19433	inactive
44	CG10494 (GeneID 37453)	DRSC04072	inactive
45	Adf1 (GeneID 47082)	DRSC04941	inactive
46	Adf1 (GeneID 47082)	DRSC04963	inactive
47	CG13506 (GeneID 37556)	DRSC04150	inactive
48	CG4849 (GeneID 43358)	DRSC15662	inactive
49	Tl (GeneID 43222)	DRSC16885	inactive
50	Sec31 (GeneID 35877)	DRSC07131	inactive
51	Hers (GeneID 33000)	DRSC19429	inactive
52	Hers (GeneID 33000)	DRSC19676	inactive
53	Cyp6a17 (GeneID 45556)	DRSC07378	inactive
54	Rhp (GeneID 32531)	DRSC20279	inactive
55	CG10887 (GeneID 42399)	DRSC14277	inactive
56	PPO3 (GeneID 44513)	DRSC04325	inactive
57	CG34328 (GeneID 5740378)	DRSC19256	inactive
58	CG31278 (GeneID 41282)	DRSC16051	inactive
59	CG32576 (GeneID 318095)	DRSC19136	inactive
60	CG5676 (GeneID 34368)	DRSC02875	inactive
61	Jon66Cii (GeneID 38953)	DRSC10778	inactive
62	sna (GeneID 34908)	DRSC03613	inactive
63	CG12715 (GeneID 32252)	DRSC19492	inactive
64	CG30022 (GeneID 36233)	DRSC22405	inactive

Already shown: entries from further up.
no.	Target gene	amplicon	Outcome
35	Alp7 (GeneID 37538)	DRSC04355	inactive
36	ATPCL (GeneID 36760)	DRSC05913	inactive
37	RhoBTB (GeneID 40249)	DRSC11877	inactive
38	Rcd6 (GeneID 37332)	DRSC06054	inactive
39	CG13160 (GeneID 36343)	DRSC06284	inactive
40	L (retired record) (GeneID 44831)	DRSC05966	inactive
41	L (retired record) (GeneID 44831)	DRSC05967	inactive
42	CG14507 (GeneID 43461)	DRSC14859	inactive
43	CG32599 (GeneID 318108)	DRSC19433	inactive
44	CG10494 (GeneID 37453)	DRSC04072	inactive
